{"source": "patent US20200214999A1", "about": "“Method for Treating an Inflammatory Disorder” (Allianz Pharmascience Ltd., priority 2019, published 2020)", "test_system": "BMDM (mouse bone marrow derived macrophages)", "assay": "MTS assay for cell viability (cytotoxicity) on BMDM", "assay_type": "cell-based", "settings": "24 hours, 0 μM to 10 μM tested", "note": "Some results were stated once for a whole list of compounds, not compound by compound."}
{"smiles": "COc1ccc(/C=C/C(=O)CC(=O)/C=C/c2ccc(OC)c(OC)c2)cc1OC", "note": "[ASC-J9]", "values": [{"measurement": "non-toxic doses (cells resistant up to)", "value": "≤ 1", "unit": "µM"}]}
